All values are in %.
The controls that fix the scale are not given in the record; negative values are as filed.
The compounds are a random part of those screened.

By UniProt entry, the sequences of proteins in these tests, tags left out.
UniProt E9BF75, entry or part of it: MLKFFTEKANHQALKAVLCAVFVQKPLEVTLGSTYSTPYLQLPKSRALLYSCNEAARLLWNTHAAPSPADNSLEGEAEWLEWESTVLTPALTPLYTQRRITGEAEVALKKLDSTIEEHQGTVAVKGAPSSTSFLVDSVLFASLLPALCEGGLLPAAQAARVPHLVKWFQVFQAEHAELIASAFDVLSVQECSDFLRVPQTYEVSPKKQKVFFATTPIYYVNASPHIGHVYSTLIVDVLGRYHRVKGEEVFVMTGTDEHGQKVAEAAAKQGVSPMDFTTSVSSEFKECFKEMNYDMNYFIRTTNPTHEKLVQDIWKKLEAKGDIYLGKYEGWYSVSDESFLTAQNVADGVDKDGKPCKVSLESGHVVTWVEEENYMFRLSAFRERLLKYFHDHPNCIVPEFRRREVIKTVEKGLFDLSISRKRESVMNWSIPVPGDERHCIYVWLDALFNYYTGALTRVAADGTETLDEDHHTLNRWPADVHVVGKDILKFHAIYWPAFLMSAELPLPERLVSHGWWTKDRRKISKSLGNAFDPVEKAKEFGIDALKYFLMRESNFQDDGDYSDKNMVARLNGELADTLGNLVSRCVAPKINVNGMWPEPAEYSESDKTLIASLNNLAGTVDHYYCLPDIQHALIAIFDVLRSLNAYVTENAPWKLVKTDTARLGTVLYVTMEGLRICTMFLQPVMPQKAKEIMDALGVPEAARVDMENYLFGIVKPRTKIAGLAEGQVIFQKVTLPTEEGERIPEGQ

A: 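Assay on Mycobacterium tuberculosis, filed only as a heat shock assay from Cornell; the read-out is not stated. The concentration is filed as 10 mM, unlikely as a test dose, so the dose is not known. The record gives no direction; compounds that gave an IC50 in retests scored well above the rest, so higher reads as stronger inhibition. Of about 69,000 compounds tested this way, about 930 (1.4%) reached 50% or more in at least one test.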
B: 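Methionyl-tRNA synthetase (putative), Leishmania donovani (UniProt E9BF75). Primary screen of methionyl-tRNA synthetase; the read-out is not stated. The test concentration is not given. The values are filed as inhibition. Of about 68,000 compounds tested this way, about 24 (0.035%) reached 50% or more in at least one test.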
C: 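Whole-cell assay for inhibitors of Mycobacterium tuberculosis growth, labelled Cornell in the record; the read-out is not stated. The concentration is filed as 10 mM, unlikely as a test dose, so the dose is not known. Higher means stronger inhibition (inferred from two other growth screens of the library). About 53,000 compounds were tested under these conditions; 1.7% (about 900) showed 50% or more at least once.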

{"compound": "COC(=O)C(C)(C)NC(=O)c1cc2sc(N(C)C)nc2s1", "A": 5.197, "B": 9.441, "C": -15.43}
{"compound": "Cc1n[nH]c(C)c1C1COCCN1C(=O)c1n[nH]c2ccccc12", "stereo": "stereo not given", "A": -7.55, "B": 11.72}
{"compound": "Cc1ccc(-c2cc(CN3CCOC(Cn4cncn4)C3)on2)cc1", "stereo": "stereo not given", "A": 26.59, "B": 10.8, "C": 21.8}
{"compound": "Cn1ccc(CN2CCC(NC(=O)Cc3ccccc3)CC2)cc1=O", "A": 17.73, "B": 11.66, "C": 1.601}
{"compound": "Cc1ccc(NC2CCN(C(=O)CN(C)C3CC3)CC2)nn1", "A": 15.07, "B": 17.36}
{"compound": "COc1ccc(C(C(=O)O)N2CCCN(C3CCCC3)CC2)cc1OC", "stereo": "stereo not given", "A": -16.69, "B": 7.807, "C": -17.34}
{"compound": "O=C(CN1CCC2(CC1)NC(=O)c1cc(Br)ccc1N2)NC1CC1", "A": -0.008328, "B": 12.73, "C": -67.58}
{"compound": "Cc1cc(NC(=O)CN2CCN(c3nccs3)C(C)C2)no1", "stereo": "stereo not given", "A": 0.4371, "B": 18.33, "C": -8.222}
{"compound": "Cn1c(SCC(O)COCc2ccccc2Cl)nnc1C1CC1", "stereo": "stereo not given", "A": 7.487, "B": 14.54, "C": 15.98}
{"compound": "CCCn1cc(NC(=O)c2ccc(NC(=O)NC3CC3)cc2)ccc1=O", "A": 4.976, "B": 2.419}
{"compound": "[H][C@@]12CS(=O)(=O)C[C@]1([H])N(C(=O)CSc1ccccn1)CCN2C(=O)C1CC1", "A": -12.55, "C": -14.86}
{"compound": "O=C(c1cccc2ncccc12)N1CCCN(c2cccnn2)CC1", "A": 24.89, "B": 10.65, "C": -60.84}
{"compound": "CCCOC1CCCN(C(=O)Cn2cccc(C(F)(F)F)c2=O)C1", "stereo": "stereo not given", "A": 2.689, "B": 11.5, "C": -15.01}
{"compound": "Cn1ccnc1CN1CCC2(CC(=O)N(c3cccc(F)c3)C2)C1.O=C(O)C(F)(F)F", "stereo": "stereo not given", "A": 3.872, "C": 31.01}
{"compound": "O=C(c1cc(COc2ccc3c(c2)OCO3)[nH]n1)N1CC=CC1CO", "stereo": "stereo not given", "A": 0.2821, "B": 14.5, "C": 46.2}
{"compound": "CCOc1ccc(-c2c(C#N)c(N)nc3c2COCC3)cn1", "A": 1.548, "B": 15.97, "C": 30.34}
{"compound": "Cc1cnn(C2CCCN(C(=O)Cc3ccc4c(c3)CCO4)C2)c1", "stereo": "stereo not given", "A": -24.05, "B": 5.491, "C": -16.79}
{"compound": "CC1CCN(CC(O)CNc2ccccn2)CC1", "stereo": "stereo not given", "A": -0.4175, "B": 9.943}
{"compound": "Cc1nc(C(F)(F)F)nc(N2CCC3(CC2)CC(C(=O)O)N(C)C3)c1C", "stereo": "stereo not given", "A": -0.6201, "B": 17.74, "C": -10.81}
{"compound": "CCC(CO)N(Cc1ccccn1)C(=O)c1cccc(C#N)c1", "stereo": "stereo not given", "A": -1.203, "B": 12.29, "C": -2.04}
{"compound": "CCC1=N[C@@]2(CC[C@@H]3CN(Cc4ccc(F)cc4)C[C@@H]32)C(=O)N1C", "B": 20.67}
{"compound": "O=C(NCCCN1CCOCC1)c1ccc(-c2ccccc2)[nH]c1=O", "A": 5.943, "B": 7.532, "C": 30.26}

Some entries from above, unchanged:

Cn1c(SCC(O)COCc2ccccc2Cl)nnc1C1CC1 (stereo not given) gave A: 7.487%; B: 14.54%; C: 15.98%.
Cc1cnn(C2CCCN(C(=O)Cc3ccc4c(c3)CCO4)C2)c1 (stereo not given) gave A: -24.05%; B: 5.491%; C: -16.79%.

Data taken from ChEMBL document CHEMBL3988442, “University of Dundee, Small-Polar-MMV Screening Library” (2021).